# Percent effect of library compounds

From ChEMBL document CHEMBL3988442, “University of Dundee, Small-Polar-MMV Screening Library” (2021).

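Whole-cell growth test on Mycobacterium tuberculosis, read after 3 days in glucose-containing 7H9 medium; the read-out is not stated. Tested at 50 µM. Direction is inferred from retests: higher values go with more growth inhibition. Size under these conditions: about 69,000 compounds, about 760 of them at 50% or above in at least one test.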

Results are given as percent effect. The controls that fix the scale are not given in the record; negative values are as filed. Compounds were drawn at random from those tested, without regard to their results. Two or more numbers in one place are separate tests of the same structure; such repeats can differ widely.

- COCC(=O)NCC(Cc1cccc(F)c1)n1cccc1 (stereo not shown) | 29.84% and 19.37%
- O=C(Cc1cc(F)cc(Cl)c1)N[C@@H]1CCNC[C@H]1O | 24.73%
- [H][C@@]12COCC[C@]1([H])C[C@H](N(CC(=O)O)C(=O)c1ccccc1)C2 | 9.612%
- Cc1cnn(CC2CN(Cc3nccn3CC(F)(F)F)CCO2)c1 (stereo not shown) | 8.59%
- CCc1cnc(CNc2ccc(C(=O)N3CCCC(C)C3)cc2C)o1 (stereo not shown) | -4.51%
- O=C(O)C(F)(F)F.O=C(c1ccncc1)N1CCOC2(COCCN(c3cncnc3)C2)C1 (stereo not shown) | -1.022%
- Cc1nn(CCO)cc1CN1CCCC1c1nc2c(C)cccc2[nH]1 (stereo not shown) | -22.22%
- COc1cccc(C(=O)N(C)C(C)c2c(C)n[nH]c2C)c1OC (stereo not shown) | -25.55%
- CN1CC2(CCNCC2)CC1C(=O)NCCCNc1cccnc1 (stereo not shown) | -36.38%
- CC(O)CCN(C)C(=O)Nc1cc(F)cc(Br)c1 (stereo not shown) | 10.14% and 21.84%
- COc1cnc(N2CC(N3CCOCC3)C2)nc1-c1ccnn1C | 20.16% and -0.2521%
- c1ccc2c(Cc3nnc([C@H]4CCN(C5CCOCC5)C4)o3)c[nH]c2c1 | -10.28% and 1.97%
- Cc1ccc(C(=O)N2CCCC(n3cccn3)C2)cc1S(C)(=O)=O (stereo not shown) | 3.444%
- C[C@@H]1CN(Cc2cn(C)nc2-c2ccccc2F)C[C@H](C)O1 | 0.8655%
- CCc1nc(CN(CCc2ccccc2)C2CCN(C)CC2)no1 | 6.999% and 3.235%
- CCn1cc(S(=O)(=O)N2CCC(C)CC2)c(C)n1 | 6.33%
- CN(C)CCCNC(=O)c1ccc(N(C)S(C)(=O)=O)cc1Cl | -8.898%
- CC(C)c1nc(CN2CCc3onc(-c4cccc(F)c4)c3C2)no1 | -24.9%
- COc1cc(-c2n[nH]c(CC#N)n2)cc(OC)c1OC | -67.93%
- Cc1cc(NC(=O)Cn2ccccc2=O)n(C)n1 | -19.98%
- Cc1ccc(Br)cc1NC(=O)NC1CCC2(C1)OCCO2 (stereo not shown) | -0.8034% and -32.09%
- O=C(O)C(F)(F)F.[H][C@]12CCN(S(=O)(=O)N(C)C)CC[C@@]1([H])S(=O)(=O)CCN2CC(C)C | -10.97% and -4.664%
- Cc1nc(N2CCCC2)nc2c1CN(C(=O)NC(C)C)CC2 | -13.23%
- c1cc(CN2CCC(c3nnc4n3CCCCC4)CC2)c2nonc2c1 | -28.78%
- Cc1noc(-c2ccnc(N3CCC(N4CCCC4)CC3)c2)n1 | 10.47%
- CC(C)c1nc(CN(C)C2CCN(CC(F)(F)F)C2)no1 (stereo not shown) | -5.77% and 10.08%
- O=C(O)C(F)(F)F.O=C(O)C(F)(F)F.[H][C@@]12CN(Cc3csc(C)n3)CCO[C@]1([H])CN(Cc1ccsc1)C2 | 11.61%
- COc1cccc(CN(C)C(=O)CN2CC(n3nc(C)cc3C)C2)c1 | 0.7193% and -0.7445%
- CNS(=O)(=O)CC1CCCN1C(=O)c1ccc2cc[nH]c2c1 (stereo not shown) | -12.32%
- Cc1cc(C)n(CCC(=O)N2CCCC(n3nc(C)nc3C)C2)n1 (stereo not shown) | -6.351%
- CC(NC(=O)NCCOc1ccc(F)c(F)c1)c1nncn1C (stereo not shown) | -1.742%
- [H][C@]12C[C@H](C(=O)NC)N(S(C)(=O)=O)[C@@]1([H])CN(C(=O)c1cscn1)C2 | -14.66%
- CCC(Nc1ncnc2sc(C(=O)O)c(C)c12)c1ccnn1C (stereo not shown) | -8.177%
- CCOc1ccccc1CC(=O)N1C[C@H](C2CC2)[C@@H](N)C1 | -25.42%
- O=C(NCc1cc(F)ccc1F)Nc1ccn(CC(F)F)n1 | 14.96%
- Cc1nccn1CCCNc1nccnc1C#N | -7.012%
- O=C(O)C(F)(F)F.O=C(O)C(F)(F)F.O=C(O)C(F)(F)F.[H][C@]12C[C@H](C(=O)NCC3CC3)N(C)[C@@]1([H])CN(Cc1csc(C)n1)C2 | -23.05%
- O=C(O)C(F)(F)F.O=C(O)C(F)(F)F.O=C(O)C(F)(F)F.[H][C@@]12CCN(Cc3cccnc3)[C@@]1([H])CCN2Cc1ccc2c(c1)OCO2 | -6.778%
- CCc1cc(N2CCCNCC2)n2nc(C)c(C)c2n1 | 40.47%
- CCC[C@@H]1CN(Cc2cnc(-c3cccs3)nc2)C[C@H]1C(=O)O | 18.92% and -1.297%
- COCC(=O)N1CCC(c2cc3nc(C)cc(C(F)(F)F)n3n2)CC1 | -53.39%
- COC(=O)CN(C(=O)c1cccc(F)c1Cl)c1cccc(C)n1 | -5.082%
- CCCc1nnc(N(C)CC2CCCN(CC)C2)o1 (stereo not shown) | -53.07%
- O=C(Cc1ccccn1)N1CCc2ncnc(N3CCCC3)c2CC1.O=C(O)C(F)(F)F | -27.44% and -2.76%
- O=C([C@@H]1Cc2[nH]cnc2CN1CC1CC1)N1CCCC1 | -34.75% and -8.205%
- CCC(C)Oc1ccc(CNCCNC(C)=O)cc1OC (stereo not shown) | 10.58%
- Cc1noc(C)c1CN1CCC(c2nnc(Cn3cccn3)n2C)CC1 | -12.31%

Some entries from above, unchanged:

| structure | percent effect |
|---|---|
| `CC(C)c1nc(CN2CCc3onc(-c4cccc(F)c4)c3C2)no1` | -24.9 |
| `Cc1noc(C)c1CN1CCC(c2nnc(Cn3cccn3)n2C)CC1` | -12.31 |
| `CN1CC2(CCNCC2)CC1C(=O)NCCCNc1cccnc1` (stereo not shown) | -36.38 |
| `COCC(=O)NCC(Cc1cccc(F)c1)n1cccc1` (stereo not shown) | 29.84 and 19.37 |